Experimental data: the RNAGym collection of RNA variant scans (doi:10.1126/science.aae0568)
Variants at the floor of the assay are shown more often than the library holds them.

B1: tRNA (parent)
chain: GUUCCGUUGGCGUAAUGGUAACGCGUCUCCCUCCUAAGGAGAAGACUGCGGGUUCGAGUCCCGUACGGAACG

Variants of: B1
Assay: yeast fitness relative to wild type (ratio to wild type); higher = fitter; tRNA-Arg(CCU), competitive growth, 37 C, YPD
How it was run: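 Gene amplicons from the start population and from each of six end populations were read by 100-nucleotide paired-end sequencing. Those end populations came from pooled Saccharomyces cerevisiae strains carrying tRNA-Arg(CCU) gene variants at the native locus, competed in YPD at 37°C for 24 hours. Fitness relative to wild type was worked out from changes in genotype frequencies. Genotypes needed ≥ 100 starting reads, and estimates < 0.5 were set to 0.5.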

**Q.** For GUUUCGCUGGCGUAAUGGUAACGCGUCUCCCUCCUAAGGAGAAGACUGCGGGUUCGUGUCUCGUACGGAACG [C4U U7C A57U C61U], which yeast fitness is on record?
**A.** ≤ 0.5

**Q.** With GUUCCGUUGACGUAAUGGUCACGCGUGUCCCUCCUAAGGGGAAGACUGCGGGUUCGAGUCCCGUACGGAACG [G10A A20C C27G A40G] as the variant, how does the yeast fitness read?
**A.** ≤ 0.5

**Q.** With GUUCCGUUGGCGUAAGGGUAAUGCGUCUCCCUCCUAUGGAGAAGACUGCCGGUUCGAGUCCCGUACAGAACG [U16G C22U A37U G50C G67A] as the variant, how does the yeast fitness read?
**A.** ≤ 0.5

**Q.** With GUUCCGUUGGCGUAAUGGUAGCGCGUCUCCCUCCUAAGGAGAAGACUGCGGGUGUGAGUCCCGUACGGAACG [A21G U54G C55U] as the variant, how does the yeast fitness read?
**A.** ≤ 0.5

**Q.** For GUUCCGUCGGCGUAAUGGUAACGCGUCUCCCUCCUAAGGAGAAGACUGCGAGUUCGAGUCCCGUAAGGAACG [U8C G51A C66A], which yeast fitness is on record?
**A.** ≤ 0.5

**Q.** For GUUACGUUGGCGUAAUGGUAACGCGUCUCCCUCCUACGGAACAGACUGCGGGUUCGAGUCCCGUACGGAACG [C4A A37C G41A A42C], which yeast fitness is on record?
**A.** ≤ 0.5

**Q.** Which yeast fitness does the source give for GUUCCGUUGGUAUAAUGGUAACGCGUCUCCUUCCUAAGGAGAAGACUGCGGGCUCGAGUCCCGUCCGGAACG [C11U G12A C31U U53C A65C] here?
**A.** ≤ 0.5

**Q.** Which yeast fitness does the source give for GUUCCGUUGGCGUAAUGGGAACGCGUCUCCCUCCUAAGGAGAAGACUGGGGGUUGGAGUCCCGUACGGAACG [U19G C49G C55G] here?
**A.** ≤ 0.5

**Q.** For GUUCCGUUCGCGUAAUGGUAACACGUCUCCCUCCUAAGGCGAAGACUGCGGGUUCGAGUCCCGUACGGAACG [G9C G23A A40C], which yeast fitness is on record?
**A.** ≤ 0.5

**Q.** With GUUACGUUGGCGUAAUGGUAACACGUCUUCCUCGUAACGAGAAGACUGCGGGUACGCGUCCCGUACGGAACG [C4A G23A C29U C34G G38C U54A A57C] as the variant, how does the yeast fitness read?
**A.** 0.602

**Q.** With GUUCCGUUGGAGUAAUGGUAACGCGUCUCCCUCCUAAGGAGAAGUCUGCGGGUCCGAGUCCCGAACGGAACG [C11A A45U U54C U64A] as the variant, how does the yeast fitness read?
**A.** ≤ 0.5

**Q.** For GUUCCGUUGGAGUAAUGGUAAUGCGUCUCCCUCCUAAGGAGAAGUCUGCGGGUUCGAGUCCCGUACGGAACG [C11A C22U A45U], which yeast fitness is on record?
**A.** ≤ 0.5

**Q.** Which yeast fitness does the source give for GUUCCGUUGGCGUAACGCUAACGCGUCUCCCUCCUAGGGAGAAGACUGCGGGUGCGAGUCCCGGACGGAACG [U16C G18C A37G U54G U64G] here?
**A.** ≤ 0.5

**Q.** Which yeast fitness does the source give for GUUCCCUUGGCGUAAUGGAAACGCGUCUCCCUCCUAACGAGAAGACUGCGGGUUAGAGUCCCCUACGGAACG [G6C U19A G38C C55A G63C] here?
**A.** ≤ 0.5

**Q.** Which yeast fitness does the source give for GUUCCGUUGGCGUAGUGGUAACGAGUCUCCCUCCUAAGGAGAAGACUGCGGGUUCGAGUCCCGAACGGAACG [A15G C24A U64A] here?
**A.** ≤ 0.5

**Q.** With GUUCGGUUGGAGUAGUGAUAACGCGUCUCGCUCCUAAGGAGAAGACUGCGGGUUCGAGUCCCGUACGGAACG [C5G C11A A15G G18A C30G] as the variant, how does the yeast fitness read?
**A.** 0.587

**Q.** For GUUCCGUUGGCGUAAUGAUAGCGCGUCUCCCUCCUAAGAAGAAGACUGAGGGUUCGAGUCCCGUACGGAACG [G18A A21G G39A C49A], which yeast fitness is on record?
**A.** ≤ 0.5

**Q.** Which yeast fitness does the source give for GUUCCGUUGGCGUAAUGGUAACGCGUAUCCCUCCUAAGAAGCAGACUCCGGGUUCGAGUUCCGUACGGAACG [C27A G39A A42C G48C C60U] here?
**A.** ≤ 0.5

**Q.** With GUUCCGUUGGCGUAAUCGUAACGCGUCUCCCUCCUAAGGAGAAGACUGCGGGUUCCAGUCCCGUACGGAACG [G17C G56C] as the variant, how does the yeast fitness read?
**A.** 0.633

**Q.** Which yeast fitness does the source give for GUUCCGUUGGCGUAUUGGUAACGCGUCACCCUCCUAAGGAGAAGACUGCGGGUUCGAGUCCCGGACGGAACG [A15U U28A U64G] here?
**A.** ≤ 0.5

**Q.** With GUUCCGUUGCCGUAAUGGUAACGCGUUUCCCUCCUAAGGUGAAGUCUGCGGGUUCGAGUCCCGUACGGAACG [G10C C27U A40U A45U] as the variant, how does the yeast fitness read?
**A.** ≤ 0.5

**Q.** With GUUCCGUUGGCGUAAUGGUAACGCGUCUCCCUCCUACGGAGGAAACUGCGGGUUCGAGUCCCGUACGGAACG [A37C A42G G44A] as the variant, how does the yeast fitness read?
**A.** ≤ 0.5

**Q.** For GUUCCGUUGGCGUAAUGGUCACGCGUCUCGCUCCUAAGGAGAAGUCUGCCGGUUCGAGUCCCGUACGGAACG [A20C C30G A45U G50C], which yeast fitness is on record?
**A.** ≤ 0.5

**Q.** For GUACCCUUGGCGUAAUGGUAACGCGUCUCCCUCCUAUGGAGAAGACUGCGGGUUGGAGCUCCGUACUGAACG [U3A G6C A37U C55G U59C C60U G67U], which yeast fitness is on record?
**A.** ≤ 0.5

**Q.** Which yeast fitness does the source give for GUUCCGUUGGCGUAAUGGUAACGCGUCUCCCUCCUAAGGAGAAGACUGCAGGUUUGAGUCCCGUACGUAACG [G50A C55U G68U] here?
**A.** ≤ 0.5

**Q.** Which yeast fitness does the source give for GUUCCGUUGCCGUCAUGGUAACGCGUAUGCCUCCUAAGGAGAAGACUGCGGGUUCGCGUCCCGUUCGGAACG [G10C A14C C27A C29G A57C A65U] here?
**A.** ≤ 0.5

**Q.** With GUUCCGUUGGCGUAAUGGUAACGCGUCUACCUCCGAAGGAGAAGACUGCGAGUUCGAGUCCCGUACGGAACG [C29A U35G G51A] as the variant, how does the yeast fitness read?
**A.** ≤ 0.5

**Q.** Which yeast fitness does the source give for GAUCCGUUGGGGUAAUGGUAACGCGUCUCCCUCGUAAGGAGAAGACUGCGGGUUCGAGUCCCGGACGGAACG [U2A C11G C34G U64G] here?
**A.** ≤ 0.5

**Q.** For GUUCCGUUGGCGUAAUGGUAACGCGUCUGCCUCCUACGGAGAAGACUGCGGGUUCGAGUCCCGUACUGAACG [C29G A37C G67U], which yeast fitness is on record?
**A.** ≤ 0.5

**Q.** Which yeast fitness does the source give for GAUCCGUUGGCGUAAUGGUAACGCGUCUCCCUCCUAAGGAGAAGACUGGGGGUUGGAGUCCCGUACGGAACG [U2A C49G C55G] here?
**A.** ≤ 0.5

**Q.** Which yeast fitness does the source give for GUUCCGUUGGCGUAAUGGUAACGCGUCUCCCUCCUACGGAGAAGAUUGCGGGCUCGAGUCCCGUACGGAACG [A37C C46U U53C] here?
**A.** ≤ 0.5

**Q.** For GCUCCGUUGGCGUAAUGGUAACGCGUCUCCCUCCUAAGGAGAAGAGUGCGGGUUCGAGUCCCAUACGGAUCG [U2C C46G G63A A70U], which yeast fitness is on record?
**A.** ≤ 0.5

**Q.** Which yeast fitness does the source give for GUUCCGUUGGCGUAAUGGUACCGCGUCUCCCUCCUAAGGAGUAGACUGCGGGUUCCAGUCCCGUACGGAACG [A21C A42U G56C] here?
**A.** ≤ 0.5

**Q.** For GUGCCGUAGGCGUAAUGGUAACGCGUCUCCAUCCUAAGGAGAAGACUGCGGGUUCGAGUCCCGUACGGAACG [U3G U8A C31A], which yeast fitness is on record?
**A.** ≤ 0.5

**Q.** For GUUCCGAUCGCGUAAUGGUAACGCGUCUCUCUCGUAAGGAGAAGACUGCGGGUUCGUGUCCCGUAUGGAACG [U7A G9C C30U C34G A57U C66U], which yeast fitness is on record?
**A.** ≤ 0.5

**Q.** Which yeast fitness does the source give for GUUCCGUUGGCGUAAUGGUAACGCGUCUCCCUCUUAAGGAAAAGACAGCGGGUUCGACUCCCGUACGGAACG [C34U G41A U47A G58C] here?
**A.** ≤ 0.5

**Q.** With GUUCCGUUGGGGUAAUGGUAACGCGUCUCCAUUCUAAGCAGAAGACUGCGGGUUCGAGUCCCGUACGGAACG [C11G C31A C33U G39C] as the variant, how does the yeast fitness read?
**A.** ≤ 0.5

**Q.** With GUUCCGUUGGCGUAAUGGUAACGCGUCUCCUUCCUAAGGAGAAGACUGCGGGCUCGAGUCCCGUACGGAACG [C31U U53C] as the variant, how does the yeast fitness read?
**A.** 0.633
